The results in this text go back to patent US20230054860A1.

Amino acid sequences for entries named in this document (tags omitted).
UniProt Q9H7D7: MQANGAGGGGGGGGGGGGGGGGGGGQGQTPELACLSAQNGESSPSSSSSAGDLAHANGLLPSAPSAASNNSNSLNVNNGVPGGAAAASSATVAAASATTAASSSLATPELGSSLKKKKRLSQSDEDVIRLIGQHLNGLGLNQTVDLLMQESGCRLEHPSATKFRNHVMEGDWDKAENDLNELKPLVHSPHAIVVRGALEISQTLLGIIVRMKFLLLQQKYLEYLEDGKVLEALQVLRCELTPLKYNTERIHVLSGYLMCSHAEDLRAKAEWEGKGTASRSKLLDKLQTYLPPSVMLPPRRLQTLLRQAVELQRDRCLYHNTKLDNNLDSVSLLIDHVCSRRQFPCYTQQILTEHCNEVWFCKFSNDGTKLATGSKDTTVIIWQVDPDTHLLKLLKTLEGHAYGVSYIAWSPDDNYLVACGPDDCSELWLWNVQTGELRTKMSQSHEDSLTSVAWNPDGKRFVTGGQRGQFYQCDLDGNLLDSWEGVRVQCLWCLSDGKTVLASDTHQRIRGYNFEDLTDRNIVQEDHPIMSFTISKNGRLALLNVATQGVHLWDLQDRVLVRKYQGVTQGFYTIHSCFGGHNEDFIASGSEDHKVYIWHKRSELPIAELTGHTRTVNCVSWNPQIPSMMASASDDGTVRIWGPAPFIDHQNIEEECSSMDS

Experiment [1] addresses WDR26 (endogenous) (UniProt Q9H7D7). Kind of experiment: co-immunoprecipitation, western blot (FIG. 11b). For orientation: A western blot detects proteins with antibodies after separation by electrophoresis.
Experiment [2] shares this target. Description: co-immunoprecipitation of endogenous proteins, western blot, MCF10A and CA1D cells.

Results are given in words; binding and its absence hold for the method and conditions named. Binding seen in cells or lysates may run through a third protein. Some results given as binding are weak or reduced against the parent protein; the word gives no strength.

B1: NOLC1 (also known as Nopp140) (protein, human, UniProt Q14978 1-699, looked up)
chain: MADAGIRRVVPSDLYPLVLGFLRDNQLSEVANKFAKATGATQQDANASSLLDIYSFWLKSAKVPERKLQANGPVAKKAKKKASSSDSEDSSEEEEEVQGPPAKKAAVPAKRVGLPPGKAAAKASESSSSEESSDDDDEEDQKKQPVQKGVKPQAKAAKAPPKKAKSSDSDSDSSSEDEPPKNQKPKITPVTVKAQTKAPPKPARAAPKIANGKAASSSSSSSSSSSSDDSEEEKAAATPKKTVPKKQVVAKAPVKAATTPTRKSSSSEDSSSDEEEEQKKPMKNKPGPYSSVPPPSAPPPKKSLGTQPPKKAVEKQQPVESSEDSSDESDSSSEEEKKPPTKAVVSKATTKPPPAKKAAESSSDSSDSDSSEDDEAPSKPAGTTKNSSNKPAVTTKSPAVKPAAAPKQPVGGGQKLLTRKADSSSSEEESSSSEEEKTKKMVATTKPKATAKAALSLPAKQAPQGSRDSSSDSDSSSSEEEEEKTSKSAVKKKPQKVAGGAAPSKPASAKKGKAESSNSSSSDDSSEEEEEKLKGKGSPRPQAPKANGTSALTAQNGKAAKNSEEEEEEKKKAAVVVSKSGSLKKRKQNEAAKEAETPQAKKIKLQTPNTFPKRKKGEKRASSPFRRVREEEIEVDSRVADNSFDAKRGAAGDWGERANQVLKFTKGKSFRHEKTKKKRGSYRGGSISVQVNSIKFDSE
As for B1, the binding entry in the experiment with WDR26 (endogenous) [1] and in the experiment with WDR26 (endogenous) [2] was “binds” each time.
